Experimental data: patent US11141413B2, “Method of treating renal cell carcinoma using N-(4-(6,7-dimethoxyquinolin-4-yloxy)phenyl)-N′-(4-fluorophenyl)cyclopropane-1,1-dicarboxamide, (2S)-hydroxybutanedioate” (Exelixis, Inc., priority 2016, dated 2021)
The name of at least one read-out is uncertain.

Test: Clinical drug interaction: proton pump inhibitor esomeprazole on cabozantinib
Type: in vivo, human
Settings: esomeprazole 40 mg daily for 6 days, single dose of 100 mg cabozantinib, healthy volunteers

COc1cc2nccc(Oc3ccc(NC(=O)C4(C(=O)Nc5ccc(F)cc5)CC4)cc3)c2cc1OC [cabozantinib]
Effect of esomeprazole on plasma cabozantinib exposure (AUC): No clinically-significant effect
